# Measured values from PubChem BioAssay AID651768 (National Center for Advancing Translational Sciences (NCATS), 2012).
# The chains behind the UniProt entries cited, without tags or fusion partners.
# UniProt Q14191, whole entry, looked up: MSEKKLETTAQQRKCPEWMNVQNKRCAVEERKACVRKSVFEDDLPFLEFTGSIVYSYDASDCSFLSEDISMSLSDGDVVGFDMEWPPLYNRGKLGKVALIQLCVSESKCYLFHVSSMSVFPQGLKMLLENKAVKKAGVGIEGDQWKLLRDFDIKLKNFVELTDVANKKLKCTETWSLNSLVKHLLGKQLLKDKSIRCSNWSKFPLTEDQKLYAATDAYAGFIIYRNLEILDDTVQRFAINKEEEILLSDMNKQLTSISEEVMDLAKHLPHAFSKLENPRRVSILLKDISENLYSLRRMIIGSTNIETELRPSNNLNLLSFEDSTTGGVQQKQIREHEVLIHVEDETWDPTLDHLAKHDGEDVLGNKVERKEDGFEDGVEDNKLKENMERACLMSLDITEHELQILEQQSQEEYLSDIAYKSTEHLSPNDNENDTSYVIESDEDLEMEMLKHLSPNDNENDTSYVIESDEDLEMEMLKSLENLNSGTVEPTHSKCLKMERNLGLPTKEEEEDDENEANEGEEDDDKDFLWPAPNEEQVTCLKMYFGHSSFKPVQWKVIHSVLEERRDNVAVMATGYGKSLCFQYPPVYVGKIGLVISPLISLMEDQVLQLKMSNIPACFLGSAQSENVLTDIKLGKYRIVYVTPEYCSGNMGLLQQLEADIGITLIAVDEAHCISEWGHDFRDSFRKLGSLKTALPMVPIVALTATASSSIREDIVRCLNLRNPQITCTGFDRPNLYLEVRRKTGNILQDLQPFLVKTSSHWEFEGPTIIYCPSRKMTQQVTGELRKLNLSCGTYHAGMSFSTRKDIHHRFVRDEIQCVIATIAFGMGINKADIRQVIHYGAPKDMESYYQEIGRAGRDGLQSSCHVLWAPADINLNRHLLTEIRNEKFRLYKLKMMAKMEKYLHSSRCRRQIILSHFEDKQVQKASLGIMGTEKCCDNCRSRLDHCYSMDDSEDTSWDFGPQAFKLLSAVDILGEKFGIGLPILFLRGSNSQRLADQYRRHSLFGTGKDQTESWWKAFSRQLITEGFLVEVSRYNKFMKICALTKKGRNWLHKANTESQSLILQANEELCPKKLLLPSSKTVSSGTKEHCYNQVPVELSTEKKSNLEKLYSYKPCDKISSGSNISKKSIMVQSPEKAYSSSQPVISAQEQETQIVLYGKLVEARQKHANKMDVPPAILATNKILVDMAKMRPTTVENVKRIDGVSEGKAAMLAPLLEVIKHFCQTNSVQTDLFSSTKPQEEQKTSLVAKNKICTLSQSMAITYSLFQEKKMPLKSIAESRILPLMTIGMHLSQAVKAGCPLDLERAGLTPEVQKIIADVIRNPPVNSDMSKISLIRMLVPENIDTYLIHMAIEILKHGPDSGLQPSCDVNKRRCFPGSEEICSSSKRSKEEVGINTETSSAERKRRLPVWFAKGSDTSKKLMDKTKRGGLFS
# The campaign covered roughly 360,000 compounds. About 1,700 (0.47%) were called active. Inconclusive results, whose numbers are uncertain, are shown with a selection of clear calls. Calls follow the shape of the dose curve; as a rule, active = well fitted inhibition curve with a large enough effect; inconclusive = small, poorly fitted or top-dose-only effect; inactive = no such curve, though single readings can be large or run the other way. A potency beside an inconclusive call is a rough fit, not a confirmed value.
# Biological target: Bifunctional 3'-5' exonuclease/ATP-dependent helicase WRN (Homo sapiens) (UniProt Q14191)
# Assay: qHTS for Inhibitors of WRN Helicase; also: nearly all actives have a fitted effect of over 55% in size
# Conditions: WRN helicase unwinding, fluorescent forked duplex, kinetic; activity change, negative = inhibition: at 114 µM (top of the series) unless noted
# Procedure, shortened: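 WRN at 20 nM final was preincubated with compound for 15 min at room temperature; reaction started with 100 nM forked duplex oligonucleotide carrying fluorophore and quencher plus 2 mM ATP (final). Unwinding followed kinetically by red fluorescence (ex 525/em 598 nm).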
# % is scaled to controls: 0 for no effect and ±100 for the full control effect; potency is read from the fitted curve at half-maximal effect.
Compound,Potency,"activity change, negative = inhibition"
C(=N\Nc1nc2ccccc2s1)/c1ccccn1,"inconclusive: 10 µM [inhibitor, full curve]",
CN(C)S(=O)(=O)c1ccc2c(c1)nc(CCC(=O)Nc1ccc(N3CCOCC3)cc1)n2C,"inconclusive: 89.1 µM [inhibitor, single point]",
CCOC(=O)c1c(NC(=O)/C=C/c2ccc(C)o2)sc(C)c1C,,inactive: -5.06%
N#C/C(=C\c1ccc(O)c(O)c1)C(=O)NCCCc1ccccc1,"inconclusive: 28.2 µM [inhibitor, full curve, poor fit]",
Cc1cc(N/N=C/c2ccc(O)cc2)c2cccc(C)c2n1,active: 44.7 µM,
Cc1ccc(NC(=O)c2ccccc2)cc1,,inactive: 0.833%
CCOC(=O)C(Cc1ccc(NC(=O)/C(=C/c2ccccc2)NC(=O)c2ccccc2)cc1)N1C(=O)c2ccccc2C1=O (centres undefined),,inactive: 3.21%
CC(C)c1ccc(NC(=O)Nc2nnc([C@H]3C[C@H](O)[C@@H](CO)O3)s2)cc1,,inactive: 6.64%
O=C(COC(=O)CSc1ccc([N+](=O)[O-])cc1)NCCC1=CCCCC1,"inconclusive: 17.8 µM [inhibitor, single point]",
COc1cc(/C=C2\SC(=S)N(c3cccnc3)C2=O)ccc1O,"inconclusive: 35.5 µM [inhibitor, partial curve, poor fit]",
Cc1cc2ccccc2n1CCNC(=O)COc1ccc2ccccc2c1,"inconclusive: 79.4 µM [inhibitor, partial curve]",
O=C(O)c1cccc(NC2=C(n3nnc4ccccc43)C(=O)c3ccccc3C2=O)c1,,inactive: 1.16%
COc1ccc(S(=O)(=O)N2CCCCC2)cc1NC(=O)Cc1c[nH]c2ccccc12,"inconclusive: 11.2 µM [inhibitor, partial curve]",
O=C(N/N=C/C(Br)=C\c1ccccc1)c1ccc2nc[nH]c2c1,,inactive: -26.6%
C=C1c2cccc(O)c2C(O)=C2C(=O)[C@]3(O)C(O)=C(C(N)=O)C(=O)[C@@H](N(C)C)[C@@H]3[C@@H](O)[C@H]12,"inconclusive: 56.2 µM [inhibitor, partial curve, poor fit]",
CCOc1ccc2nc3cc(N=Nc4ccc(N)nc4N)ccc3c(N)c2c1,"inconclusive: 22.4 µM [inhibitor, full curve]",
COc1ccccc1-c1noc(-c2ccncc2)n1,,inactive: -8.45%
O=[N+]([O-])c1ccc(Sc2cccc[n+]2[O-])c2nonc12,active: 15.8 µM,
C/C=C/C=C\C(=O)Nc1cccc(C2=NOC3(C2)C[C@H](C(N)=O)N(C(=O)/C=C/C)C3)c1 (some centres undefined),"inconclusive: 44.7 µM [inhibitor, partial curve]",

# 2 entries from above, reformatted:
Compound | Potency | activity change, negative = inhibition
CCOc1ccc2nc3cc(N=Nc4ccc(N)nc4N)ccc3c(N)c2c1 | inconclusive: 22.4 µM [inhibitor, full curve] | 
O=[N+]([O-])c1ccc(Sc2cccc[n+]2[O-])c2nonc12 | active: 15.8 µM | 
